# Laboratory results: PubChem BioAssay AID2685 (National Center for Advancing Translational Sciences (NCATS), 2010)
# Out of some 320,000 compounds screened, about 2,100 (0.66%) were called active. Inconclusive results, whose numbers are uncertain, are shown with a selection of clear calls. Calls follow the shape of the dose curve; as a rule, active = well fitted inhibition curve with a large enough effect in the signal ratio, with a control signal flat (not every such curve was filed as active); inconclusive = small, poorly fitted or top-dose-only effect, or effect the other way, or a change in a side signal; inactive = flat fitted curve, though single readings scatter; the % refers to the signal ratio. Where the call is inconclusive, the potency comes from a doubtful curve fit.
# Assay: qHTS Assay for Lipid Storage Modulators in Drosophila S3 Cells
# Settings: BODIPY lipid droplet fluorescence, 18-24 h, cells fed with added oleic acid; lipid storage change, negative = inhibition: at 46.1 µM (top of the series) unless noted
# Outline: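 Drosophila S3 cells loaded with oleic acid (400 uM, as added) and compounds at several concentrations; lipid droplets imaged by 488-nm laser-scanning cytometry, 500–530 nm intensity and object ratio to cell channel. Percent activity normalized to 20 uM Triacsin C.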
# % is scaled to controls: 0 for no effect and ±100 for the full control effect; potency is read from the fitted curve at half-maximal effect.
SMILES,Potency,"lipid storage change, negative = inhibition"
CN(C)S(=O)(=O)c1ccc2nc(NC(=O)c3cccs3)sc2c1,"inconclusive: 1.16 µM [rising, full curve, poor fit]",–
COc1cc(/C=C(\C#N)C(=O)Nc2ccccc2F)ccc1OCCN1CCOCC1,–,inconclusive: -45.9%
O=C(Nc1cccnc1)C12CC3CC(CC(C3)C1)C2,"inconclusive: 3.66 µM [falling, single point]",–
C=CCSc1nc2c(c(=O)[nH]c(=O)n2C)n1C/C=C(/C)Cl,"inconclusive: 16.4 µM [falling, single point]",–
O=C(N/N=C\c1cccc(Cl)c1)c1ccc(Cn2cc(Br)c([N+](=O)[O-])n2)o1,"inconclusive: 23.1 µM [falling, partial curve, poor fit]",–
Cc1ccc(CC(=O)NC2CCCc3ccccc32)cc1C (centres undefined),"inconclusive: 0.58 µM [activator, single point]",–
CCC(CC)N1CCN(S(=O)(=O)c2ccc(OC)cc2)CC1,–,inconclusive: -5.18%
C/C(=N\NC(=O)CSCc1ccc([N+](=O)[O-])cc1)c1ccccc1O,–,inconclusive: 18.5%
COc1cc(SC)ccc1C(=O)Nc1ccc2c(c1)OCO2,"inconclusive: 23.1 µM [rising, partial curve]",–
COc1ccc(N2C(=S)N=C(Nc3cccc(C)c3)C23CCCCC3)cc1,–,inactive
COc1ccc(CC(=O)NCc2ccccc2Cl)cc1S(=O)(=O)N1CCOCC1,–,inconclusive: -26.5%
COc1ccc(Br)cc1CNc1ccccc1,"inconclusive: 20.6 µM [activator, partial curve]",–
CCOC(=O)c1c(C)[nH]c(C(=O)OCc2ccc([N+](=O)[O-])cc2)c1C,"inconclusive: 29.1 µM [falling, single point]",–
O=S(=O)(c1ccc(Cl)cc1)N1CCN(C2CCCCCC2)CC1,"inconclusive: 2.06 µM [activator, partial curve]",–
CCC(=O)c1ccc(OCC(=O)O)cc1,–,inconclusive: -9.33%
CCOc1ccc(N2CC(C(=O)NCc3nnnn3-c3ccc(C)c(C)c3)CC2=O)cc1 (centres undefined),–,inactive
CSCC[C@H](NC(=O)N1CCn2c1nc1ccccc12)C(=O)NCc1ccc(C)cc1,"inconclusive: 0.13 µM [falling, full curve, poor fit]",–
COC(=O)c1ccccc1NC(=S)NC(=O)c1ccccc1F,–,inconclusive: 23.2%
Cn1c(=O)c2c(ncn2Cc2ccc(Cl)c(Cl)c2)n(C)c1=O,"inconclusive: 29.1 µM [falling, single point]",–
Cc1ccc2cc(NC(=O)CC(CC(=O)O)c3ccccc3)ccc2n1 (centres undefined),–,inconclusive: -24.3%
CCOC(=O)CN(Cc1sccc1C)C(=O)Nc1cccc(OC)c1,"inconclusive: 18.4 µM [falling, single point]",–
CCc1ccc(CC)c(S(=O)(=O)Nc2ccc(C(=O)O)c(O)c2)c1,–,inconclusive: -127%
COc1cc(NC(=O)c2ccc(C)c([N+](=O)[O-])c2)ccc1NC(=O)c1ccco1,–,inconclusive: -26.8%
Cc1ccc(C(=O)OCC(=O)Nc2nc(-c3ccccc3)cs2)cc1NC(=O)c1ccco1,–,inconclusive: 137%
COc1ccc2c(c1)CCc1c(C(=O)N3CCc4ccccc4C3)noc1-2,–,inconclusive: -3.11%
Cc1ccc(C2CC(c3ccc(Br)cc3)=NN2C(=O)CSC2=NN3CCCC(=O)N=C3S2)cc1 (centres undefined),"inconclusive: 3.26 µM [activator, full curve]",–
O=C(CSc1ccc2nnc(-c3cccnc3)n2n1)c1ccccc1,–,inconclusive: -74.6%

# Sorted by count of non-hydrogen atoms (descending): 3 of the compounds above
SMILES,Potency,"lipid storage change, negative = inhibition"
COc1cc(/C=C(\C#N)C(=O)Nc2ccccc2F)ccc1OCCN1CCOCC1,–,inconclusive: -45.9%
CN(C)S(=O)(=O)c1ccc2nc(NC(=O)c3cccs3)sc2c1,"inconclusive: 1.16 µM [rising, full curve, poor fit]",–
CCC(CC)N1CCN(S(=O)(=O)c2ccc(OC)cc2)CC1,–,inconclusive: -5.18%

# The results go on:

SMILES,Potency,"lipid storage change, negative = inhibition"
O=c1c(Cl)c(N2CCOCC2)cnn1-c1nc2ccccc2[nH]1,–,inconclusive: -0.896%
CCN1CCN(CCC(=O)Nc2ccc(Br)c(C)c2)CC1,"inconclusive: 6.51 µM [activator, single point]",–
Cc1ccc(S(=O)(=O)NCC(=O)NCC2CCCCC2)cc1C,–,inconclusive: 25.5%
CCc1cccc(NC(=O)CN(C)S(=O)(=O)c2cccc3cccnc23)c1,–,inconclusive: 35.4%
CCN(Cc1ccccc1)S(=O)(=O)c1ccc(C(=O)N2CCN(c3nc4ccccc4s3)CC2)cc1,–,inconclusive: 11.9%
COc1cccc(NC(=O)CCc2nnc3ccc(N4CCN(c5cccc(OC)c5)CC4)nn23)c1,active: 9.2 µM,–
Nc1ccc(C(=O)O)c(O)c1,–,inconclusive: -10.2%
NS(=O)(=O)c1ccc(CCNCc2cccnc2)cc1,–,inconclusive: 220%
CN(CC(=O)Nc1cccc(F)c1)C(=O)c1ccccc1-n1cnnn1,–,inconclusive: 176%
CNC(=O)c1cccc(NC(=O)c2ccccc2OCc2ccccc2)c1,–,inconclusive: -77.8%
Cc1nn(-c2ccccc2)c(C)c1/C=C/C(=O)OCC(=O)N(C)C1CCS(=O)(=O)C1 (centres undefined),"inconclusive: 0.103 µM [falling, full curve]",–
O=C(c1cccs1)N(Cc1cc2ccccc2[nH]c1=O)c1ccccc1,–,inconclusive: 45.2%
Cc1ccc(CNC(=O)CCc2c(C)[nH]c(=O)c(C#N)c2C)cc1,–,inconclusive: -186%
COCCCn1c(=N)c(C(=O)NCC2CCCO2)cc2c(=O)n3ccccc3nc21 (centres undefined),–,inconclusive: 22.3%
Cc1cc(O)ccc1NC(=S)NC(=O)c1cncc(Br)c1,–,inconclusive: -16.2%
CC(=O)SC1CC(=O)N(c2ccc(C(C)(C)C)cc2)C1=O (centres undefined),–,inconclusive: 10.6%
CCOC(=O)c1ccc(N2C(=O)CC(N3CCN(Cc4ccccc4)CC3)C2=O)cc1 (centres undefined),"inconclusive: 29.1 µM [falling, single point]",–
Cc1ccc(S(=O)(=O)NCCNC(C)c2ccc(Br)cc2)cc1 (centres undefined),–,inconclusive: 14.4%
CC(=O)Nc1ccc(SCC(=O)Nc2sccc2C#N)cc1,–,inconclusive: 7.52%
CC1C2C(C)N(C)C(=O)N(C)C2N(C)C(=O)N1C (centres undefined),–,inconclusive: -19.3%
CN1/C(=C\C(=O)c2cccnc2)C(C)(C)c2ccccc21,–,inconclusive: 24.5%
CC(=O)N/N=C(\C)CCc1ccccc1,–,inconclusive: 61.3%
CCOc1cc(/C=N/NC(=O)CCn2nnc3ccccc32)ccc1O,–,inconclusive: -0.826%
Cc1n[nH]c(C)c1S(=O)(=O)N1CCCC(C(=O)NCc2cccs2)C1 (centres undefined),–,inconclusive: 39.5%
COc1ccc(CC(=O)Nc2cccc(/C(C)=N/NC(=O)C3(C)CC3(Br)Br)c2)cc1 (centres undefined),"inconclusive: 23.1 µM [falling, single point]",–
O=C(O)CC(CC(=O)Nc1nncs1)c1ccccc1 (centres undefined),–,inconclusive: -29.1%
COc1ccccc1C(C)NC(=O)c1ccc(NC(=O)CC2SC(N3CCCC3)=NC2=O)cc1 (centres undefined),–,inconclusive: 13.5%

# 3 compounds drawn at random from those above, as already listed:
SMILES,Potency,"lipid storage change, negative = inhibition"
COc1cccc(NC(=O)CCc2nnc3ccc(N4CCN(c5cccc(OC)c5)CC4)nn23)c1,active: 9.2 µM,–
Cc1cc(O)ccc1NC(=S)NC(=O)c1cncc(Br)c1,–,inconclusive: -16.2%
COC(=O)c1ccccc1NC(=S)NC(=O)c1ccccc1F,–,inconclusive: 23.2%

# More results

SMILES,Potency,"lipid storage change, negative = inhibition"
CCCCc1nnc(NC(=O)CCS(=O)(=O)c2ccc(C)cc2)s1,–,inconclusive: -43.6%
COc1ccc(CNCC(O)(c2ccc(F)cc2)c2ccc(F)cc2)cc1OC,"inconclusive: 0.116 µM [falling, full curve, poor fit]",–
O=C(COc1ccc2ccccc2c1)Nc1cccc2cccnc12,–,inconclusive: -19.7%
Cc1ccc(OCCn2cc(C=O)c3ccccc32)cc1,–,inconclusive: -7.85%
Oc1cccc(NC(=S)N=Nc2c(O)[nH]c3ccc(Br)cc23)c1,–,inconclusive: -17.4%
CCOc1ccccc1NC(=O)CCNS(=O)(=O)c1ccc2[nH]c(=O)oc2c1,–,inconclusive: -100%
O=C(CCCC(=O)N(c1ccc(F)cc1)C(C(=O)NC1CCCC1)c1ccc(O)cc1)Nc1ccccn1 (centres undefined),–,inconclusive: 246%
COc1ccc(/C=N/n2cnn(Cc3ccccc3Cl)c2=S)cc1OC,"inconclusive: 29.1 µM [cytotoxic, partial curve, poor fit]",–
O=C(/C=C/c1ccccc1)C1=C(O)C(=O)N(CCO)C1c1ccccc1[N+](=O)[O-] (centres undefined),–,inconclusive: -24.9%
CC(C)(C)N(Cc1ccccc1)C(=O)COC(=O)c1ccc([N+](=O)[O-])o1,active: 11.6 µM,–
O=C(NC(N1CCOCC1)C(Cl)(Cl)Cl)c1ccco1 (centres undefined),–,inconclusive: -26%
CC(C)(C)C(=O)Nc1nnc(-c2ccncc2)o1,–,inconclusive: -0.243%
COc1cc(/C=C2/SC(=S)N(CC(=O)O)C2=O)ccc1OC(=O)c1ccco1,–,inconclusive: 149%
Cc1cc(NC(=O)c2ccc(NC(=O)C(C)C)cc2)no1,–,inconclusive: 11.5%
COc1cc(CC(=O)OCC(=O)c2c[nH]c3ccccc23)cc(OC)c1OC,–,inconclusive: -61.2%
CC(C)Oc1ccc(NC(=O)Oc2ccccc2)cc1,–,inconclusive: 16.1%
CCOc1ccc(/C=C/C(=O)N(CC)CC(=O)Nc2ccc3c(c2)OCCO3)cc1OC,–,inconclusive
Cc1coc2cc3oc(=O)c(CCC(=O)NCCCn4ccnc4)c(C)c3cc12,–,inconclusive: -36.5%
Cc1cc(C2=NNC(=Nc3ccccc3)SC2)c(C)n1C,–,inconclusive: 18.2%
COC(=O)c1ccc(OC(=O)N2CCOCC2)cc1,–,inconclusive: 80.2%
CCN(C(=O)COC(=O)c1oc2ccc(OC)cc2c1C)C1CCS(=O)(=O)C1 (centres undefined),–,inconclusive
O=C(CN1C(=O)C2C3C=CC(C3)C2C1=O)NCC1COc2ccccc2O1 (centres undefined),–,inconclusive: -8.26%
O=C(COC(=O)c1cccc(Br)c1)NC(=O)NC1CCCC1,–,inconclusive
COc1cccc(S(=O)(=O)NCc2ccc(C(=O)N3CCN(c4ccccc4OC)CC3)cc2)c1,"inconclusive: 29.1 µM [falling, single point]",–
CCOC(=O)c1ccc(NC(=S)NNC(=O)COC)cc1,–,inconclusive: 11%
